# Test results reported in the supplement of paper PMC6411743.
# Protein sequences, listed by entry. Tags and fused reporters are not part of them. Lines headed by an entry give the natural chain unless they say otherwise; changes in a name come on top.
# UniProt Q9BTU6: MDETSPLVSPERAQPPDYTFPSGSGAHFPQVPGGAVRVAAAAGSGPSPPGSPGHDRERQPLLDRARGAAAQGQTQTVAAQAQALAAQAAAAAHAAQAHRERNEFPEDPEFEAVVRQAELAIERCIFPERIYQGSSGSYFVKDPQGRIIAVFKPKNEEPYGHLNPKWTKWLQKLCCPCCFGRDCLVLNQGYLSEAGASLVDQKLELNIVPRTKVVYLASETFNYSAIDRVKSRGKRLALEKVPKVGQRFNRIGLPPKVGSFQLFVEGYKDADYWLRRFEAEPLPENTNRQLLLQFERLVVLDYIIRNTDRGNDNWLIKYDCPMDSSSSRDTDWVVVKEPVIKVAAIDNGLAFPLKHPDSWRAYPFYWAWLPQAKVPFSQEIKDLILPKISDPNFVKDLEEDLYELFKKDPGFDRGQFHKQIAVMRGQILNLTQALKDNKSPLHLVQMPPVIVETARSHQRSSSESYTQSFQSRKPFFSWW
# UniProt Q96T21: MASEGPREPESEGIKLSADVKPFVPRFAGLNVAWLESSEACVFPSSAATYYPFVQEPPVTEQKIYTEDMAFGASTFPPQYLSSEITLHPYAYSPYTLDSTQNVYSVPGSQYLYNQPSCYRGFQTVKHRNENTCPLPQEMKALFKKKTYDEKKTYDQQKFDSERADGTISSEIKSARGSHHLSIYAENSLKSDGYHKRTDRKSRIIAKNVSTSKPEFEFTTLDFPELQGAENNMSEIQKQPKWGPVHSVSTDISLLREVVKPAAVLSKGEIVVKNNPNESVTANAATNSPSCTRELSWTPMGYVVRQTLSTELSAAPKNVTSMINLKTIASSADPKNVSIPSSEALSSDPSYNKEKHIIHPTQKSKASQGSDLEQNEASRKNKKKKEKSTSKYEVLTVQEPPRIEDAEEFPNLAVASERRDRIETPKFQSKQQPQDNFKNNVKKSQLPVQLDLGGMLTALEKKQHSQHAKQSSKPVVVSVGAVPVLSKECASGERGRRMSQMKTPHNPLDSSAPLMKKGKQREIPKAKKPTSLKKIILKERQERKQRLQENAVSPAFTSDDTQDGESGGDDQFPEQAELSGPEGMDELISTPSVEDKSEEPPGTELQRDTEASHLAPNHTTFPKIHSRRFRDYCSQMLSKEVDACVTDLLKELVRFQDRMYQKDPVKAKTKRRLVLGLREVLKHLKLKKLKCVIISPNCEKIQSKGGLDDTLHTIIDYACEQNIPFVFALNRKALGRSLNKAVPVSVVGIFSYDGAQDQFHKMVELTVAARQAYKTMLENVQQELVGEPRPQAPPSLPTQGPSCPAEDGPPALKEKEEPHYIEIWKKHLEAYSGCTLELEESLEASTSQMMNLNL
# UniProt Q9BYJ9: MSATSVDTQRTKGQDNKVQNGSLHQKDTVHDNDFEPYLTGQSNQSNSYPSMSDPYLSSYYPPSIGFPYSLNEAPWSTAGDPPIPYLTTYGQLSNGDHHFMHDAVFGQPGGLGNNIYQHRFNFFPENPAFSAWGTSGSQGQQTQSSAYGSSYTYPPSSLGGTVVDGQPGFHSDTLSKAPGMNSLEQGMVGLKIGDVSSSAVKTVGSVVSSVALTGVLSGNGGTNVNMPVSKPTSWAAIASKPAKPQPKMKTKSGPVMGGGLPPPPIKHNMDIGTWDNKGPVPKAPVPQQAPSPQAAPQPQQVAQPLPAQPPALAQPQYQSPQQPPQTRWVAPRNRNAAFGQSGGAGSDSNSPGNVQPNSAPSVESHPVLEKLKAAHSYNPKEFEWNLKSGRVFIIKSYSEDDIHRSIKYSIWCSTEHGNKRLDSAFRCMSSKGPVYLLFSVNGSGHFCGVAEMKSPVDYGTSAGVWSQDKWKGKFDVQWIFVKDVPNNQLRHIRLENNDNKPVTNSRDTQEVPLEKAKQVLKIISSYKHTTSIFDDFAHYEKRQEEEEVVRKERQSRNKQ
# UniProt Q9BQ70: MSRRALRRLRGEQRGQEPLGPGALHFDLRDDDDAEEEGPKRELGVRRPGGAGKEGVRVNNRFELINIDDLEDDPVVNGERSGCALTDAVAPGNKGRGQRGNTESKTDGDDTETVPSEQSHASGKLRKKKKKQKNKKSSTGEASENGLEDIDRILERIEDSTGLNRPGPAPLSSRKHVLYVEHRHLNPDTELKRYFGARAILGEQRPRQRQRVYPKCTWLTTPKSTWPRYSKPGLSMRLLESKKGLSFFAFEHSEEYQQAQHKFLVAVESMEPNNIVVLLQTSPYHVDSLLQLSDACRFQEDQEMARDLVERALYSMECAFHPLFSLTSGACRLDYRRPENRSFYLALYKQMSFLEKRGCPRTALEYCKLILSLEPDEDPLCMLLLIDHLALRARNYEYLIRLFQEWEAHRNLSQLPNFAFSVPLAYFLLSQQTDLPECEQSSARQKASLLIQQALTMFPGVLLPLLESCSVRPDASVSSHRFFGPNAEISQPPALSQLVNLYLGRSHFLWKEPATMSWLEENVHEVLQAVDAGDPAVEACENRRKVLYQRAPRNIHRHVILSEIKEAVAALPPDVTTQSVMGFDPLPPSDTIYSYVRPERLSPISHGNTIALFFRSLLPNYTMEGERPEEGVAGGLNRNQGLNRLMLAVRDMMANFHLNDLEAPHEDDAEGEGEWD
# UniProt Q9BXK1: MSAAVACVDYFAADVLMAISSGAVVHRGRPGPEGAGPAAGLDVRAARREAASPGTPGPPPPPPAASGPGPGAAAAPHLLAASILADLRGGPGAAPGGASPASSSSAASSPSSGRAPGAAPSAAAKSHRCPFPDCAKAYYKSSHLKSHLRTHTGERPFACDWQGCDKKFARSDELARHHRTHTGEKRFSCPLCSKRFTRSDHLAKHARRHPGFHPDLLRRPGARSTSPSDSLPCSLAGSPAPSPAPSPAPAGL
# UniProt Q9BW19: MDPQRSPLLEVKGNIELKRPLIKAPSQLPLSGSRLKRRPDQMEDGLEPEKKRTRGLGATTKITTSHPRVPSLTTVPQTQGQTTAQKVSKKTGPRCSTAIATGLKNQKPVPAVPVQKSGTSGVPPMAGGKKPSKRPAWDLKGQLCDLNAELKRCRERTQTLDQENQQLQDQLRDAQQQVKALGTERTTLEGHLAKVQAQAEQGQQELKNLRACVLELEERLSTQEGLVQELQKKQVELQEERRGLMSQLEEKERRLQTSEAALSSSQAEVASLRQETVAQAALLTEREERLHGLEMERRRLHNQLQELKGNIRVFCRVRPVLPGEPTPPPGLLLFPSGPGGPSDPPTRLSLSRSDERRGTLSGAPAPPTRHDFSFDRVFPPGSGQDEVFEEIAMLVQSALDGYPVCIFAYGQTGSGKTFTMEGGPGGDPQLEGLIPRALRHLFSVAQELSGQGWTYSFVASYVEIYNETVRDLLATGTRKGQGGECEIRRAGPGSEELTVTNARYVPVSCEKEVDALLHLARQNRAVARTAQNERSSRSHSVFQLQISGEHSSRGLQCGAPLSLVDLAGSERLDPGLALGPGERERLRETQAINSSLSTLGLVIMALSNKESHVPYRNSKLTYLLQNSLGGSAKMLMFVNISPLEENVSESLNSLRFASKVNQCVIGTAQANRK
# UniProt Q99471, whole entry: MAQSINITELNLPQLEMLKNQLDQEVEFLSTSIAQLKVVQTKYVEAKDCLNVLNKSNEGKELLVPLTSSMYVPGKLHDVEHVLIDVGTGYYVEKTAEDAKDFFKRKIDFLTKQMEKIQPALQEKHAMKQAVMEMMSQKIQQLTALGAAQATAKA
# UniProt Q96QZ7: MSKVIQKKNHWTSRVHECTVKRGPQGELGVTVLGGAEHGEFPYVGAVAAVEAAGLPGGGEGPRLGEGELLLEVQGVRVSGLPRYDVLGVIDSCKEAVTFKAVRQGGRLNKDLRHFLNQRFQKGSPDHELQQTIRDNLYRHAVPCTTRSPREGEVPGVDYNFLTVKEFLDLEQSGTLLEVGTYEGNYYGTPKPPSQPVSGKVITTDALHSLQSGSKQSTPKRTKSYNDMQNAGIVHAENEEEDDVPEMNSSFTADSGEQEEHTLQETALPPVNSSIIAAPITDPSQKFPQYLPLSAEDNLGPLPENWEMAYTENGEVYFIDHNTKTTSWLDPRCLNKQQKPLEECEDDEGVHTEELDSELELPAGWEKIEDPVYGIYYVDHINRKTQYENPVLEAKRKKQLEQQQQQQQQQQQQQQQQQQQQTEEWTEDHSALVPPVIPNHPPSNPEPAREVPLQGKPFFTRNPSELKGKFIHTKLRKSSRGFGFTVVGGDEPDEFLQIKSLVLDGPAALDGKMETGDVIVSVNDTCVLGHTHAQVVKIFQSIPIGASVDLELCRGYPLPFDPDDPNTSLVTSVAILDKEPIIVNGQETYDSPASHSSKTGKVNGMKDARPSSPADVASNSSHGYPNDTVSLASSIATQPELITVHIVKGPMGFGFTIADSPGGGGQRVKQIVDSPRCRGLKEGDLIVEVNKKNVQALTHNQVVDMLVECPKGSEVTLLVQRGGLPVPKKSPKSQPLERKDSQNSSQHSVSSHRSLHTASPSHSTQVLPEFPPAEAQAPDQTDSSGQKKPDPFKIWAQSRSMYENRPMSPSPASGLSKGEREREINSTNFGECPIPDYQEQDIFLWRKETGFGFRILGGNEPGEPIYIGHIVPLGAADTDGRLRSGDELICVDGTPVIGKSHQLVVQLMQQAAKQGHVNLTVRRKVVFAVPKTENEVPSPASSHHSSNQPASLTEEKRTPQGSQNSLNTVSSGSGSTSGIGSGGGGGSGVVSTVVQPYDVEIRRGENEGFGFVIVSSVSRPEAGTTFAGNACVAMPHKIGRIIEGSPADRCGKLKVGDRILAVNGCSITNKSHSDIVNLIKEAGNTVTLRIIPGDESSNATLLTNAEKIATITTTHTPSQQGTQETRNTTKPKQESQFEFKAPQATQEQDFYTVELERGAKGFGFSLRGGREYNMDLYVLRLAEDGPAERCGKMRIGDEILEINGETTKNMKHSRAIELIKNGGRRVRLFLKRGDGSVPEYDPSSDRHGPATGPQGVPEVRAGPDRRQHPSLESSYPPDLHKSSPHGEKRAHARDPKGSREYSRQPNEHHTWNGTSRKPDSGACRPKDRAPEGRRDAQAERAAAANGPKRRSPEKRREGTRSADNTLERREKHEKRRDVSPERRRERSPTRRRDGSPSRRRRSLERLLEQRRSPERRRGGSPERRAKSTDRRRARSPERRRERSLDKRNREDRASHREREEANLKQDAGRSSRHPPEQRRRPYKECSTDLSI
# UniProt Q9BZ95: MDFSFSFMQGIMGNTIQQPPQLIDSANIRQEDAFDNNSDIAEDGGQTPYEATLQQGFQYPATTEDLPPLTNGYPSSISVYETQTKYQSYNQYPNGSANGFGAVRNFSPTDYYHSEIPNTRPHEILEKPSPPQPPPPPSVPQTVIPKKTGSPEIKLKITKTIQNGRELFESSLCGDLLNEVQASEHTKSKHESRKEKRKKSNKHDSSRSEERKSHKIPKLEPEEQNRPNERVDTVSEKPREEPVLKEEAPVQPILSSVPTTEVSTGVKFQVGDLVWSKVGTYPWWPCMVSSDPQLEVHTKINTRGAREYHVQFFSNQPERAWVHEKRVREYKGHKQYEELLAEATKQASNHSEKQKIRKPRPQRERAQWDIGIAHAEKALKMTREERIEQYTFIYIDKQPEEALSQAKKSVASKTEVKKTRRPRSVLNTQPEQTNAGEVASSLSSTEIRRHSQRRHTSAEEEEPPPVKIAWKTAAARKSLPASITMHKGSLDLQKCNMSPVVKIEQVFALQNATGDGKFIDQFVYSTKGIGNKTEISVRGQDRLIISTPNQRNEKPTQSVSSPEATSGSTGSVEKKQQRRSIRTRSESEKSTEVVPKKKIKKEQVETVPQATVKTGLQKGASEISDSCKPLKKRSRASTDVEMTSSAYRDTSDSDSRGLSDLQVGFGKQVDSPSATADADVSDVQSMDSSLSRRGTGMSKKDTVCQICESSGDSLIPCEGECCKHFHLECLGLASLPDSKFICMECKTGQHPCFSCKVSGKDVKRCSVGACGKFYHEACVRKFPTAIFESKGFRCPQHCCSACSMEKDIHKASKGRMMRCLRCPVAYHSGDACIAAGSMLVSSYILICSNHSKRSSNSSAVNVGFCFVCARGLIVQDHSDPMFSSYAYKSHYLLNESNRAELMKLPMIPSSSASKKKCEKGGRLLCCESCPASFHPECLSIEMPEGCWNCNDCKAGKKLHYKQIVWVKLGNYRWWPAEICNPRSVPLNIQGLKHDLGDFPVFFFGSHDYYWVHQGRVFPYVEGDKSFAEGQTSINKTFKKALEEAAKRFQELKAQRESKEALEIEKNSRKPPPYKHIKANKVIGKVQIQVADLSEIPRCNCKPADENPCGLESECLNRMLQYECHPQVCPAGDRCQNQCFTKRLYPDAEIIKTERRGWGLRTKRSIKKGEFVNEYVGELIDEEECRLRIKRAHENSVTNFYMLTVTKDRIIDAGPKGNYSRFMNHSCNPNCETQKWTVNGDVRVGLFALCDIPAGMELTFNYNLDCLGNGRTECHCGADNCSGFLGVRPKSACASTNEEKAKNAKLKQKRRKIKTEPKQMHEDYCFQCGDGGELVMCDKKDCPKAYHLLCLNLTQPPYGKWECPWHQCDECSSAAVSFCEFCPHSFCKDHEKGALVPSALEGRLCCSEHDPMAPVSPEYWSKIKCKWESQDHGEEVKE
# ± gives the standard deviation of the averaged measurements. The entries are a selection whose mix differs from that of the whole data set.
# Compound: Nc1ncnc2c1ncn2[C@@H]1O[C@H](COP(=O)(O)OP(=O)(O)NP(=O)(O)O)[C@@H](O)[C@H]1O [adenylyl imidodiphosphate]
# Assay: NP40-soluble protein abundance relative to vehicle (solubility fold change) (ratio); higher = more soluble protein in presence of AMP-PNP
# In short: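 Jurkat crude lysate prepared with a Dounce homogeniser was treated at eight concentrations spanning 0.1 to 10 mM, 10 min at room temperature then 3 min at 37 °C. Solubilisation with 0.8% NP40 and benzonase and ultracentrifugation preceded TMT labelling of the supernatant for LC-MS/MS. Fold change against the detergent-processed vehicle was determined per replicate from vsn-normalised intensities, across three independent experiments.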
Target,NP40-soluble protein abundance (concentration: 1mM),NP40-soluble protein abundance (concentration: 2mM),NP40-soluble protein abundance (concentration: 4mM),NP40-soluble protein abundance (concentration: 6mM),NP40-soluble protein abundance (concentration: 8mM),NP40-soluble protein abundance (concentration: 10mM)
UniProt Q9BPZ3 and related entries,0.981 ± 0.02,1.01 ± 0.044,0.945 ± 0.028,0.966 ± 0.051,0.929 ± 0.014,0.9085 ± 0.0067
PI4K2A (UniProt Q9BTU6),0.983 ± 0.022,0.965 ± 0.069,1.02 ± 0.023,0.965 ± 0.022,0.9894 ± 0.0057,0.9734 ± 0.0076
HEMGN (UniProt Q9BXL5),0.999 ± 0.026,1.05 ± 0.066,1.017 ± 0.0072,1 ± 0.021,0.992 ± 0.018,0.991 ± 0.014
NEU1 (UniProt Q99519),1.02 ± 0.011,1 ± 0.01,0.991 ± 0.016,1 ± 0.023,1 ± 0.029,0.995 ± 0.016
UniProt Q9BZE1 and related entries,0.951 ± 0.018,0.911 ± 0.063,0.953 ± 0.049,0.946 ± 0.019,0.95 ± 0.046,0.9434 ± 0.0076
NCAPG (UniProt Q9BPX3),0.983 ± 0.019,0.946 ± 0.019,0.975 ± 0.019,0.947 ± 0.034,0.952 ± 0.036,0.956 ± 0.035
SETD2 (UniProt Q9BYW2),1.06 ± 0.038,1.11 ± 0.059,1.08 ± 0.022,1.02 ± 0.042,1.02 ± 0.011,1.05 ± 0.013
DPH2 (UniProt Q9BQC3),1.01 ± 0.041,0.973 ± 0.028,1 ± 0.021,0.998 ± 0.017,1.02 ± 0.023,1.01 ± 0.012
UniProt Q96RQ3 and related entries,0.971 ± 0.034,0.928 ± 0.08,0.961 ± 0.058,0.934 ± 0.079,0.931 ± 0.081,0.92 ± 0.11
UniProt Q96T21 and related entries,0.97 ± 0.01,1.01 ± 0.037,1 ± 0.021,1.01 ± 0.018,0.9916 ± 0.003,1.03 ± 0.038
YTHDF1 (UniProt Q9BYJ9),1.05 ± 0.025,1.05 ± 0.032,1.02 ± 0.033,1.01 ± 0.024,0.997 ± 0.039,1.04 ± 0.063
ARID3A (UniProt Q99856),1 ± 0.049,1.06 ± 0.056,1.01 ± 0.036,1.02 ± 0.019,0.991 ± 0.015,1.04 ± 0.041
TCF25 (UniProt Q9BQ70),1.09 ± 0.14,1.02 ± 0.037,1.03 ± 0.061,1.05 ± 0.059,1.06 ± 0.047,1.05 ± 0.075
DDX23 (UniProt Q9BUQ8),1.05 ± 0.038,1.05 ± 0.047,1.07 ± 0.059,1.14 ± 0.091,1.2 ± 0.083,1.3 ± 0.17
UniProt Q9BW83 and related entries,1.04 ± 0.017,1.02 ± 0.018,1.03 ± 0.017,0.998 ± 0.012,0.976 ± 0.014,0.9931 ± 0.0052
KLF16 (UniProt Q9BXK1),1.01 ± 0.047,1.002 ± 0.0092,1.02 ± 0.045,1 ± 0.054,1 ± 0.033,0.998 ± 0.045
HSD17B10 (UniProt Q99714),0.989 ± 0.042,0.992 ± 0.043,1 ± 0.062,1.1 ± 0.11,1.1 ± 0.08,1.1 ± 0.082
UniProt Q9BTV5 and related entries,1.0068 ± 0.00083,0.997 ± 0.035,1.04 ± 0.011,1.01 ± 0.033,0.986 ± 0.041,1.01 ± 0.053
UniProt Q9BSI4 and related entries,1.04 ± 0.017,1.04 ± 0.034,1.08 ± 0.049,1.09 ± 0.073,1.062 ± 0.0072,1.07 ± 0.068
KIFC1 (UniProt Q9BW19),1.06 ± 0.03,1.13 ± 0.039,1.11 ± 0.044,1.1 ± 0.038,1.07 ± 0.032,1.11 ± 0.064
UniProt Q9BRR6 and related entries,1.03 ± 0.068,1.01 ± 0.035,1.04 ± 0.032,0.99 ± 0.054,1.01 ± 0.068,0.995 ± 0.035
UniProt Q9BPY3 and related entries,1.03 ± 0.019,1.01 ± 0.027,1.015 ± 0.0099,0.977 ± 0.024,0.997 ± 0.02,0.972 ± 0.027
UniProt Q96T76 and related entries,0.964 ± 0.013,0.929 ± 0.082,0.972 ± 0.032,0.987 ± 0.036,1.002 ± 0.0053,0.9354 ± 0.0075
PFDN5 (UniProt Q99471),0.962 ± 0.011,1.04 ± 0.12,0.947 ± 0.037,0.929 ± 0.045,0.886 ± 0.062,0.918 ± 0.032
GINS3 (UniProt Q9BRX5),0.984 ± 0.031,1.01 ± 0.02,1 ± 0.036,0.959 ± 0.032,0.954 ± 0.036,0.935 ± 0.066
NLN (UniProt Q9BYT8),1 ± 0.036,0.922 ± 0.09,1.018 ± 0.0097,0.951 ± 0.016,0.977 ± 0.015,0.945 ± 0.025
NUDCD1 (UniProt Q96RS6),0.964 ± 0.02,0.892 ± 0.085,0.928 ± 0.058,0.913 ± 0.017,0.935 ± 0.072,0.861 ± 0.035
UniProt Q96QZ7 and related entries,1.01 ± 0.03,1.07 ± 0.042,1.01 ± 0.027,0.9984 ± 0.0012,1.01 ± 0.045,1.03 ± 0.028
UniProt Q9BZ95 and related entries,1.06 ± 0.025,1.11 ± 0.015,1.12 ± 0.04,1.138 ± 0.01,1.18 ± 0.035,1.22 ± 0.033
MND1 (UniProt Q9BWT6),0.958 ± 0.034,1.05 ± 0.067,0.989 ± 0.036,0.966 ± 0.039,0.98 ± 0.023,0.936 ± 0.063

# Shown with tabs: entries from further up
Target	NP40-soluble protein abundance (concentration: 1mM)	NP40-soluble protein abundance (concentration: 2mM)	NP40-soluble protein abundance (concentration: 4mM)	NP40-soluble protein abundance (concentration: 6mM)	NP40-soluble protein abundance (concentration: 8mM)	NP40-soluble protein abundance (concentration: 10mM)
UniProt Q9BTV5 and related entries	1.0068 ± 0.00083	0.997 ± 0.035	1.04 ± 0.011	1.01 ± 0.033	0.986 ± 0.041	1.01 ± 0.053
UniProt Q9BSI4 and related entries	1.04 ± 0.017	1.04 ± 0.034	1.08 ± 0.049	1.09 ± 0.073	1.062 ± 0.0072	1.07 ± 0.068
